Source: US5703205A, “Laminin a chain polypeptides from the amino terminal golbular domain” (Regents of the University of Minnesota, priority 1993, dated 1997)
Not every detail of the peptide structures is certain; ends, links or a residue may be inferred. Some entries repeat one wording, which the source may state once for all of them. Residues, ends and D or L forms follow the SMILES beside them. No end group written: not given here.

Experiments:
[1] = test system: HT-1080 human fibrosarcoma cells; test: Direct adhesion of radiolabeled cells to peptide or protein coated microtiter wells; assay type: cell-based; conditions: 120 minutes; for maximal cell adhesion, of the total added cells: wells adsorbed with 3 μg of peptide
Description: FIG. 3 reports results in microtiter wells adsorbed with increasing concentrations of HPLC-purified peptides R17 (.smallcircle.) R18 (.quadrature.), or R19 (Δ), R20 (.circle-solid.), R32 (.box-solid.), laminin (.tangle-solidup.), or ovalbumin (.diamond.) and radiolabeled HT-1080 human fibrosarcoma cells that were allowed to adhere for 2 hours after being released from flasks with EDTA/trypsin. Each value represents the mean of four separate determinations, and the SEM was less than 10% in each case.
(§1) The direct adhesion of cells to protein or peptide coated surfaces was performed as described in Skubitz et al., Exp. Cell Res., 173, 349-360 (1987) and Charonis et al., supra (1988). Briefly, radiolabeled cells were added to 96-well microtiter plates coated with various concentrations of synthetic peptides, laminin, or BSA (0.02 μg/well-50 μg/well from 50 μl solutions) for various lengths of time. After the incubation period, loosely or nonadherent cells were removed by washing the wells three times. Adherent cells weresolubilized and quantitated in a scintillation counter. More specifically, cultures of cells which were 60-80% confluent were metabolically labeled for 24 hours with the addition of 3 μCi/ml of ^3 H-td (tritiated thymidine). On the day of the assay, the cells were harvested by trypsinization, the trypsin was inhibited by the addition of serum, and the cells were washed free of this mixture and resuspended in DMEM buffered with HEPES at pH 7.2. The adhesion medium also contained 2 mg/ml BSA. The cells were adjusted to a concentration of 3-4×10^4/ ml, and 100 μl of this cell suspension was added to the wells. The assay mixture was then incubated at 37° C. for 120 minutes. At the end of the incubation, the wells were washed with warm DMEM/Hepes containing 2 mg/ml BSA, and the adherent population was solubilized with 0.5N NaOH contained 1% SDS. The solubilized cells were then quantitated using a liquid scintillation counter.
In this case, increasing concentrations of the five synthetic peptides were adsorbed to microtiter wells. Radiolabeled HT-1080 human fibrosarcoma cells were incubated in the wells for 120 minutes and the adhesion of cells was quantitated. Cells adhered to all 5 peptides in a concentration-dependent, saturable manner with maximal cell adhesion of approximately 40% of the total added cells occurring when wells were adsorbed with 3 μg of peptides R17, R18, R20, and R32.

[2] = test system: human colon carcinoma (K12C); test: Direct cell adhesion to coated surfaces (Table II); assay type: cell-based; conditions: wells coated with 5 μg, 2 hours, % of total cells added
Excerpt: (§2) The human fibrosarcoma HT-1080 cell line was obtained from the ATCC. The murine melanoma K-1735-C10 (low metastatic) and K-1735-M4 (high metastatic) cell lines, murine UV-2237-MM fibrosarcoma cell line, human renal carcinoma SN12 PM-6 (high metastatic) cell line, and human colon carcinoma KM12 C (low metastatic) and KM12 SM (high metastatic) cell lines were originally provided by Dr. I. J. Fidler (M.D., Anderson Hospital, University of Texas Health Sciences Center, Houston, Tex.). The MM fibrosarcoma cell line was maintained in DME (GIBCO Laboratories, Grand Island, N.Y.) containing 10% FBS, the murine melanomas were maintained in DMEM containing 10% calf serum, the human fibrosarcoma cells were maintained in EMEM containing 10% heat inactivated FBS, and the human renal and colon carcinoma cells were grown in EMEM containing 10% FBS, vitamins, and 1 mM sodium pyruvate. Cells were passaged for 4 to 5 weeks and then replaced from frozen stocks of early passage cells to minimize phenotypic drift. Cells were maintained at 37° C. in a humidified incubator containing 5% CO2.
as §1
(§3) Microtiter wells were adsorbed with peptide R18, laminin, or BSA and a variety of tumor cell lines were tested for the ability to adhere to the ligands. The six different tumor cell lines selected for this study were of murine or human origin and, in most cases, of either high or low metastatic capacity. As reported in Table II, peptide R18 was also capable of promoting the adhesion of all six cell lines.
(§4) *Microtiter wells were coated with 5 μg of the peptide or proteins and […]

[3] = test system: human colon carcinoma (KI2SM); test: Direct cell adhesion to coated surfaces (Table II); assay type: cell-based; conditions: wells coated with 5 μg, 2 hours, % of total cells added
Excerpt: as §2, §1, §3, §4

[4] = test system: human renal carcinoma (SN12 PM6); test: Direct cell adhesion to coated surfaces (Table II); assay type: cell-based; conditions: wells coated with 5 μg, 2 hours, % of total cells added
Excerpt: as §2, §1, §3, §4

murine fibrosarcoma (MM) = test: Direct cell adhesion to coated surfaces (Table II); assay type: cell-based; conditions: wells coated with 5 μg, 2 hours, % of total cells added
Excerpt: as §2, §1, §3, §4

murine melanoma (C10) = test: Direct cell adhesion to coated surfaces (Table II); assay type: cell-based; conditions: wells coated with 5 μg, 2 hours, % of total cells added
Excerpt: as §2, §1, §3, §4

murine melanoma (M4) = test: Direct cell adhesion to coated surfaces (Table II); assay type: cell-based; conditions: wells coated with 5 μg, 2 hours, % of total cells added
Excerpt: as §2, §1, §3, §4

[5] = test system: HT-1080 human fibrosarcoma cells; test: Cell spreading assay on coated surfaces; assay type: cell-based; conditions: for area occupied by cells relative to that on laminin-coated surfaces: HT-1080 cell spreading, relative to intact laminin; for Cells Spread (%) / Surface Area Occupied by a Cell: wells coated with 300 μl at 100 μg/ml, 2 1/2 hour incubation
Description: Spreading of the adherent cells was evaluated by performing adhesion assays similar to those described above. Twenty-four well tissue culture plates (Becton Dickinson and Co., Lincoln Park, N.J.) were coated with 300 μl of laminin, synthetic peptides, or BSA at 100 μg/ml, then blocked with 2 mg/ml BSA in PBS. Three hundred microliters of a cell suspension at 5×10^4 cells/ml was added to each well, and after a 21/2 hour incubation, nonadherent cells were aspirated out of the wells. Adherent cells were fixed with 2% glutaraldehyde in PBS at 23° C. for one hour. The glutaraldehyde was then removed and the cells were stained by two different techniques. For photographic purposes, the cells were stained with Diff-Quik Solution I (American Scientific Products, McGaw Park, Ill.) for 10 minutes at 23° C. Solution I was removed, then Diff-Quik Solution II was added and the cells were stained for another 10 minutes at 23° C. Wells were washed with PBS, then representative cells were photographed with a Nikon DIAPHOT inverted phase microscope using Panatomic X Film ASA32 (Eastman Kodak, Rochester, N.Y.). Adherent cells to be quantitated for spreading were stained overnight at 23° C. with 500 μl of a solution containing 0.12% (w/v) Coomassie Brilliant Blue R (Sigma Chemical Co.), 5% (v/v) acetic acid, and 50% (v/v) ethanol. Wells were washed three times with 500 μl of PBS and cell spreading was then quantitated by measuring the average surface area occupied by a cell using an Opti-Max Image Analyzer. Thirty cells were measured per well; each experiment was done in quadruplicate and repeated three times. Cells spread the best on peptide R17 and R18 and occupy an area of ~30% of that seen for cells on laminin-coated surfaces. On surfaces coated with peptides R19, R20, and R32, less cell spreading was observed; cells occupied an area ~20% of that seen on intact laminin. Cell spreading on ovalbumin (negative control) was less than 10% of that seen on laminin but the cells were barely adherent under these last conditions.

[6] = Direct solid phase binding assay of 3H-heparin to adsorbed peptides; conditions: 0.2-5.0 μg/well adsorbed; 200,000 dpm 3H-heparin; 2 hours at 37° C.
human keratinocytes = test: Adhesion of cells to synthetic substrates coated with peptide; assay type: cell-based
[7] = test system: HT-1080 human fibrosarcoma cells; test: Inhibition of cell adhesion to surfaces coated with laminin; assay type: cell-based; conditions: cells pre-incubated 30 minutes with peptide (0.05-10 μg/ml), wells coated with 0.7 μg laminin

Compound	maximal cell adhesion, of the total added cells [1]	Cell Adhesion (%) to Coated Surfaces [2] [%]	Cell Adhesion (%) to Coated Surfaces [3] [%]	Cell Adhesion (%) to Coated Surfaces [4] [%]	Cell Adhesion (%) to Coated Surfaces (murine fibrosarcoma (MM)) [%]	Cell Adhesion (%) to Coated Surfaces (murine melanoma (C10)) [%]	Cell Adhesion (%) to Coated Surfaces (murine melanoma (M4)) [%]	area occupied by cells relative to that on laminin-coated surfaces [5]	Cells Spread (%) [5] [%]	Surface Area Occupied by a Cell [5] [um^2]	binding of 3H-heparin (in words) [6]	promotion of cell adhesion (in words) (human keratinocytes)	Inhibition of laminin-mediated cell adhesion (in words) [7]	cell adhesion to coated wells (in words) ([1]; increasing concentrations adsorbed, up to 5 μg/well)
CC(C)[C@H](NC(=O)[C@H](CCCNC(=N)N)NC(=O)[C@H](CS)NC(=O)[C@H](CCC(N)=O)NC(=O)[C@H](C)NC(=O)[C@H](Cc1c[nH]cn1)NC(=O)[C@H](CCCNC(=N)N)NC(=O)[C@@H](NC(=O)[C@@H]1CCCN1C(=O)[C@@H](N)CCCNC(=N)N)C(C)C)C(=O)N[C@@H](CS)C(=O)N[C@@H](CC(=O)O)C(=O)NCC(=O)N[C@@H](CC(N)=O)C(=O)N[C@@H](CO)C(=O)N[C@H](C(=O)N[C@@H](CC(N)=O)C(=O)N1CCC[C@H]1C(=O)N[C@@H](CCCNC(=N)N)C(=O)N[C@@H](CCC(=O)O)C(=O)N[C@@H](CCCNC(=N)N)C(=O)N[C@@H](Cc1c[nH]cn1)C(=O)O)[C@@H](C)O [Peptide R18, arg-pro-val-arg-his-ala-gln-cys-arg-val-cys-asp-gly-asn-ser-thr-asn-pro-arg-glu-arg-his] (H-RPVRHAQCRVCDGNSTNPRERH-OH)	approximately 40%	35	56	88	44	37	15	~ 30%	5	199 ± 59	does not adhere	promoted the adhesion	–	–
ARYIRLRLQRIRTL [Peptide R20, ala-arg-tyr-ile-arg-leu-arg-leu-gln-arg-ile-arg-thr-leu]	approximately 40%	–	–	–	–	–	–	~ 20%	0	101 ± 34	does not adhere	–	–	–
HRDLRDLDPIVTRRYYYSIK [Peptide R32, his-arg-asp-leu-arg-asp-leu-asp-pro-ile-val-thr-arg-arg-tyr-tyr-tyr-ser-ile-lys]	approximately 40%	–	–	–	–	–	–	~ 20%	5	122 ± 41	does not adhere	–	–	–
KLVEHVPGRPVRHAQCR [Peptide R17, lys-leu-val-glu-his-val-pro-gly-arg-pro-val-arg-his-ala-gln-cys-arg]	approximately 40%	–	–	–	–	–	–	~ 30%	10	235 ± 58	does not adhere	–	Inhibition of cell adhesion	–
RYKITPRRGPPTYR [Peptide R19, arg-tyr-lys-ile-thr-pro-arg-arg-gly-pro-pro-thr-tyr-arg]	–	–	–	–	–	–	–	~ 20%	5	129 ± 45	does not adhere	–	–	lower levels of cell adhesion were observed
